Data source: PubChem BioAssay AID602196 (INSERM, 2012)

Aim: 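Genes whose knock-down alters cisplatin killing of lung cancer cells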
Cell system: human A549 lung cancer cells
Reagent: siRNA pair against human genes
Timing: 48 h transfection before cisplatin; time from cisplatin to read-out not stated
Conditions: cisplatin at a dose killing half of control-siRNA cells; exact dose and duration not given
Read-out: 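Cisplatin cell death as a shift from the 50% death seen with control siRNA; siRNAs toxic or growth-blocking alone scored 0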
Reading the numbers: two-siRNA summed score (-2 to +2): higher = both siRNAs protect from cisplatin killing; -2 means both sensitise; mean protection from cisplatin (shift in death): higher = protection from cisplatin killing
Active means: 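siRNAs harmful alone (LDH or WST-1) get 0; others get +1 for less and -1 for more cisplatin killing; genes are active when the two siRNAs give the same sign, summing to ±2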
Calls: active = both siRNAs shift cisplatin killing the same way; inactive = no consistent shift, or siRNA harmful alone
This is one part, drawn at random, of about 23,000 reagents tested. In the full data, 455 (2%) are marked active. 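Active includes both protection and sensitisation; some change values fall well beyond the stated -50 to +50 range.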 A number with no mark means an inactive call. Further read-outs or replicates are left out here. The record does not give: the amount of reagent.

gene symbol | PubChem SID | two-siRNA summed score (-2 to +2) | mean protection from cisplatin (shift in death) (%)
LRP12 | SID131512592 | 0 | 5.7
KCNRG | SID131511812 | 0 | 4.8
MFN2 | SID131510250 | 0 | 3
TMEM106B | SID131511042 | 0 | 3.9
TAMM41 | SID131511334 | 0 | 4.2
LOC339344 | SID131521070 | 1 | 12.1
SENP6 | SID131512466 | 0 | 5.5
LOC441319 | SID131516301 | 0 | 10.6
ATP6V1C2 | SID131517559 | 0 | 13.8
ARHGAP30 | SID131514057 | 0 | 7.3
LOC391054 | SID131512733 | 0 | 5.8
SELENBP1 | SID131501819 | -1 | -7.2
LOC441709 | SID131506797 | 0 | -1
LOC441515 | SID131520696 | 1 | 10.8
TANK | SID131512412 | 0 | 5.4
KISS1 | SID131514891 | 0 | 8.4
ZCCHC8 | SID131509282 | 0 | 2
LOC440141 | SID131514964 | 0 | 8.5
OR12D2 | SID131501976 | -1 | -6.1
ANKRD1 | SID131504601 | 0 | -5
LOC400025 | SID131505793 | 0 | -2.6
ASB16-AS1 | SID131509284 | 0 | 2
LOC388406 | SID131522547 | 1 | 19.8
LOC389145 | SID131502588 | -1 | -0.5
ANKRD49 | SID131518004 | 0 | 15.9
OLIG3 | SID131515262 | 0 | 8.9
CREB3L2 | SID131511356 | 0 | 4.3
LINC03019 | SID131519378 | 1 | 5.2
HABP4 | SID131505457 | 0 | -3.1
SORCS3 | SID131504980 | 0 | -4
OR4K5 | SID131501161 | -1 | -11.9
PGLYRP3 | SID131511879 | 0 | 4.9
MORN5 | SID131506064 | 0 | -2.1
MTHFD2L | SID131520694 | 1 | 10.8
PPT1 | SID131518963 | 1 | -0.8
LOC153134 | SID131511389 | 0 | 4.3
LOC388900 | SID131520842 | 1 | 11.3
ACP7 | SID131521930 | 1 | 15.5
LOC391365 | SID131518362 | 0 | 18.7

Sorted by “mean protection from cisplatin (shift in death) (%)” (descending): 6 of the entries above
gene symbol | PubChem SID | two-siRNA summed score (-2 to +2) | mean protection from cisplatin (shift in death) (%)
LOC339344 | SID131521070 | 1 | 12.1
SENP6 | SID131512466 | 0 | 5.5
KCNRG | SID131511812 | 0 | 4.8
TAMM41 | SID131511334 | 0 | 4.2
TMEM106B | SID131511042 | 0 | 3.9
MFN2 | SID131510250 | 0 | 3
